Data taken from PMC10939263.
Results are given in words; binding and its absence hold for the method and conditions named. Binding seen in cells or lysates may run through a third protein. Some entries that bind do so weakly or less than the wild type.

The chains behind the UniProt entries cited, without tags or fusion partners. Where a name states a change or a piece, a line headed by the entry shows the natural chain unless it says otherwise. A line that says so, or that is headed by a name, gives the form on record, which may keep a tag or linker.
UniProt P42685: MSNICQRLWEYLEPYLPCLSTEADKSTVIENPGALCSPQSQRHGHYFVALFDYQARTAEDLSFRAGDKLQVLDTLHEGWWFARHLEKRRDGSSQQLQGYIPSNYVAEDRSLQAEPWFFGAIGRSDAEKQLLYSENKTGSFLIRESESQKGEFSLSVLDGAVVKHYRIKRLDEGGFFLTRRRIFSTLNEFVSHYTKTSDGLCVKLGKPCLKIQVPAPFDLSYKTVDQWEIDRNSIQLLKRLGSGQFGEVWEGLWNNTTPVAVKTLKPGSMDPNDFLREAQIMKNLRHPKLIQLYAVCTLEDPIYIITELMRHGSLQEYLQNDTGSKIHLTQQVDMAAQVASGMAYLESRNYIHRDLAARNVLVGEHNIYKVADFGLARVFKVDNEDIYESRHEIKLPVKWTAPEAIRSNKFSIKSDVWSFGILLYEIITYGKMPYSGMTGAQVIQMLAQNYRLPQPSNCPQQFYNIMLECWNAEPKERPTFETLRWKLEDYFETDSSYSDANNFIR
UniProt P06241: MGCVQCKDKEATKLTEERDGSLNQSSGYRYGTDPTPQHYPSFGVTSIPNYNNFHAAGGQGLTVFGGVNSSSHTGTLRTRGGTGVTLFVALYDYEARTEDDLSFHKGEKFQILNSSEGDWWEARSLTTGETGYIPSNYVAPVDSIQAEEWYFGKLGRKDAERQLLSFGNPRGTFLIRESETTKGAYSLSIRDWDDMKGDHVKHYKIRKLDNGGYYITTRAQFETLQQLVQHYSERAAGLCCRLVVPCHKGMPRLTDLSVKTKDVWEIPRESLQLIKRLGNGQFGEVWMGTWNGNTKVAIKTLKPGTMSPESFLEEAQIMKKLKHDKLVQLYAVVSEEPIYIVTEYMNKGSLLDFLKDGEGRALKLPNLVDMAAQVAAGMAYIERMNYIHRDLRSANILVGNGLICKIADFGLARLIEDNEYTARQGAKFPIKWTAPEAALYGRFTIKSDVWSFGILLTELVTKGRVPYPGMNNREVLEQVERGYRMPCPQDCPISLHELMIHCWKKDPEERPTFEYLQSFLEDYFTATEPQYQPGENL
FYN (isoform without exon 7), C1-fused (P06241, form named): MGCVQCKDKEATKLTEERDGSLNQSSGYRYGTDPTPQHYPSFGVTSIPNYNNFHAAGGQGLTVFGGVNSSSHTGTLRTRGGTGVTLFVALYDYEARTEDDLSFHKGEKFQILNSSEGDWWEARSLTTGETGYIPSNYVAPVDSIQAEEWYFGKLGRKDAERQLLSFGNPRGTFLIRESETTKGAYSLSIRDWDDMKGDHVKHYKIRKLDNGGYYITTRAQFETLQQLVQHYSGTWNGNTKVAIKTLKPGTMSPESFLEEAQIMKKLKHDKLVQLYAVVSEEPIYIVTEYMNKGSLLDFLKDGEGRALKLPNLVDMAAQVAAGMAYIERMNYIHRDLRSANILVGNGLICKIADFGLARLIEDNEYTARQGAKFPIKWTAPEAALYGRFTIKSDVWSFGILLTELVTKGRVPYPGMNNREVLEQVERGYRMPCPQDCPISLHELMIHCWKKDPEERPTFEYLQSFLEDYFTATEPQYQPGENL
FYNT isoform of FYN, N1-fused (P06241, form named): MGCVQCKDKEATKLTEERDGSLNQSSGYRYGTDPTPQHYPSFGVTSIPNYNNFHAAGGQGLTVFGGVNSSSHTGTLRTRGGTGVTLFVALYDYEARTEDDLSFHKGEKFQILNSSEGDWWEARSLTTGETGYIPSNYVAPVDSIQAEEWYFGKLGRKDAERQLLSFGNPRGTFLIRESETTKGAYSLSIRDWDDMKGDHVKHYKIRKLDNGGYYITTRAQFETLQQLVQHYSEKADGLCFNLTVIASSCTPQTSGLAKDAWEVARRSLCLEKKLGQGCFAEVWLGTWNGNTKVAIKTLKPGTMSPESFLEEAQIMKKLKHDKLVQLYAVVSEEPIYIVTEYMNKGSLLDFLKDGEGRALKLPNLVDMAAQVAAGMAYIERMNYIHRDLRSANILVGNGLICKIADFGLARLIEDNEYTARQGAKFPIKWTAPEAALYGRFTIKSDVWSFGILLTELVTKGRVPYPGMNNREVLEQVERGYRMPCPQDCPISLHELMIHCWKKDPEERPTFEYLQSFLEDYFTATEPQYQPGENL
HCK R150A mutant, N1-fused (P08631, form named): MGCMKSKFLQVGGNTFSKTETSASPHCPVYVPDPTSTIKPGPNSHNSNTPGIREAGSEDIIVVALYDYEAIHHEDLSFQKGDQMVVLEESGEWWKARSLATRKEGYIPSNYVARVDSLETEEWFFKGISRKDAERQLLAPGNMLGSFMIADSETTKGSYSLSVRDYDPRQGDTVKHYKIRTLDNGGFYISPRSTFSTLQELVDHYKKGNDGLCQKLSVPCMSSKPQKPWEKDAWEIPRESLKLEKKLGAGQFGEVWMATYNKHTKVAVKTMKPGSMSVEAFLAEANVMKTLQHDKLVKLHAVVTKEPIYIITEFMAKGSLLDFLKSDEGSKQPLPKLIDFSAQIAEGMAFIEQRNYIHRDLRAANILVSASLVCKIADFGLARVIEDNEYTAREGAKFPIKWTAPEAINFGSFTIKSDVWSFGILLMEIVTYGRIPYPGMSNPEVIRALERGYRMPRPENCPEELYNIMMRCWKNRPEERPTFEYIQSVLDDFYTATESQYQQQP
HCK Y501F mutant, N1-fused (P08631, form named): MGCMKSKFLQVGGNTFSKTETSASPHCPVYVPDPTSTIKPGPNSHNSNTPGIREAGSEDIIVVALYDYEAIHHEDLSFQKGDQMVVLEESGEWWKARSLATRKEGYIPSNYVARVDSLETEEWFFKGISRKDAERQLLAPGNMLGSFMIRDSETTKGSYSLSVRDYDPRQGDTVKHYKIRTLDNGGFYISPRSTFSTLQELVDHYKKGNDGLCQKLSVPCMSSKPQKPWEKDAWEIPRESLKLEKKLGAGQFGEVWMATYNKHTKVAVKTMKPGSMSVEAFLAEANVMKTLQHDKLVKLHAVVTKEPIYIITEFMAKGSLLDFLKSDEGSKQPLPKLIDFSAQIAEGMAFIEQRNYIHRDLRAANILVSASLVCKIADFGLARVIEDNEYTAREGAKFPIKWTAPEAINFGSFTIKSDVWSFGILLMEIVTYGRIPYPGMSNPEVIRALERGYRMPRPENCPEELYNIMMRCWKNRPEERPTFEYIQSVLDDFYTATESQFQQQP
UniProt P06239: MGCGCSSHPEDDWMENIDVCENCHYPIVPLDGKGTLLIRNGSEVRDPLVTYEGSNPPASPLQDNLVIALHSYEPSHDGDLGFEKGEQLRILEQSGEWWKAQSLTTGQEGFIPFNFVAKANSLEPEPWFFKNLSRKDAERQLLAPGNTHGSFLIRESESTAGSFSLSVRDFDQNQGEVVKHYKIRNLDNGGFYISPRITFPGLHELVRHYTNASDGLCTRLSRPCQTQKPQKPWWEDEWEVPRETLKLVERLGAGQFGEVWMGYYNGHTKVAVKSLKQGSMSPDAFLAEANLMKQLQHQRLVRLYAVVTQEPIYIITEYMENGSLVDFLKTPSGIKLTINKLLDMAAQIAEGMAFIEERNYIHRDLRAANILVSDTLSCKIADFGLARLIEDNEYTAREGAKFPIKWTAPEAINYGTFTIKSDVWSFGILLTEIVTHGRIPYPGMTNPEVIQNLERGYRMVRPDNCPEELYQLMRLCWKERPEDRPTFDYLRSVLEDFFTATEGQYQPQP
UniProt P07948: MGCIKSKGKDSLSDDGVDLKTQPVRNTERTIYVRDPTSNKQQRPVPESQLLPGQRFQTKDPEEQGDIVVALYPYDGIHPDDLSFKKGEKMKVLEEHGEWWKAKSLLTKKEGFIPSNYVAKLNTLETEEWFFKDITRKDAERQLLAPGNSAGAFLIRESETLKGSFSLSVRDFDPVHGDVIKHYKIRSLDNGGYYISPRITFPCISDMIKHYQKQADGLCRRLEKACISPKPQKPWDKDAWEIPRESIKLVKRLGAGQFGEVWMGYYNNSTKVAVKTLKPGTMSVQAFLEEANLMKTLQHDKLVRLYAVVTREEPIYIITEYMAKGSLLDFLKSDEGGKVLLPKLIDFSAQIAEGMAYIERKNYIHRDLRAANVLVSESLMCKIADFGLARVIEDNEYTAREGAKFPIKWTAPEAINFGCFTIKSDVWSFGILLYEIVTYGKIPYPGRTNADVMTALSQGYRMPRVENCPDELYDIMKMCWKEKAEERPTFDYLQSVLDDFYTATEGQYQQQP
UniProt Q9H3Y6: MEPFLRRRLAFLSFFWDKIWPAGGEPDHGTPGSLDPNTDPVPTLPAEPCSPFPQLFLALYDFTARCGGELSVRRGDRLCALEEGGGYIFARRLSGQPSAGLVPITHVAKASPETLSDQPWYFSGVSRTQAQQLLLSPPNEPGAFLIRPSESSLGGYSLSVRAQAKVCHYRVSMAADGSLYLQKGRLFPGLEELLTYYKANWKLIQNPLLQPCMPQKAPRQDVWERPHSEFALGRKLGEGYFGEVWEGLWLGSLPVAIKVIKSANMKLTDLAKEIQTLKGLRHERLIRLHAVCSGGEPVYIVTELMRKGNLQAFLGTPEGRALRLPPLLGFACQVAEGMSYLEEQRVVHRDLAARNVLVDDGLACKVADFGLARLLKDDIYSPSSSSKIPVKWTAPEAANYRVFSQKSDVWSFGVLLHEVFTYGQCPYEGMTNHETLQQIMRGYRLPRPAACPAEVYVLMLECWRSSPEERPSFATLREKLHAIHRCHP
UniProt O75563: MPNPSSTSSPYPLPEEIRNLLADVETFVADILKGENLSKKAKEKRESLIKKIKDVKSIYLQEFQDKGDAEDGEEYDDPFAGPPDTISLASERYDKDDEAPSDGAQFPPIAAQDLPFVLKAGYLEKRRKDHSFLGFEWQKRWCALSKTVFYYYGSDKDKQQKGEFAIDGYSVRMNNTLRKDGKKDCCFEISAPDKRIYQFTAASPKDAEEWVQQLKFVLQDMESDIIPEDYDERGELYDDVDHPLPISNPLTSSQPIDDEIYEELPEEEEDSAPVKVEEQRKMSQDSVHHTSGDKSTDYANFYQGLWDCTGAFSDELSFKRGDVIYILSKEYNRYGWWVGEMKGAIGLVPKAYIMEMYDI
UniProt Q86WV1: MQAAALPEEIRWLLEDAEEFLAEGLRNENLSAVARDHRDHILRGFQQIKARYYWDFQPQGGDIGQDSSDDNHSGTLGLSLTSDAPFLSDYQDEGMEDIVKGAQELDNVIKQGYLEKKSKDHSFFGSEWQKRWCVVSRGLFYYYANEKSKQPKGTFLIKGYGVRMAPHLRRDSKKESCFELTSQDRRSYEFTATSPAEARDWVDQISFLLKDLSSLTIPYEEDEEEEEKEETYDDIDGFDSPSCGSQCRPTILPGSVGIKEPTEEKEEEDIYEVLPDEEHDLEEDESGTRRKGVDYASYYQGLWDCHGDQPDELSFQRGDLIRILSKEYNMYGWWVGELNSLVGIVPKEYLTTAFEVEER

Experiments:
Assay in all cases: split reporter; Gaussia princeps luciferase complementation assay in human HEK293T cells; Gluc2 at the N terminus of SKAP1 or SKAP2 (N2), Gluc1 at the N terminus (N1) or C terminus (C1) of the SRC kinase; 100 ng plasmid pair, PEI; luminescence read in lysate one day later; normalized luminescence ratio (NLR), given relative to wild type or to SKAP2
[1] = target: FRK, C1-fused (UniProt P42685)
[2] = target: FYN (isoform without exon 7), C1-fused (UniProt P06241)
[3] = target: FYNB isoform of FYN, C1-fused (UniProt P06241)
[4] = target: FYNT isoform of FYN, C1-fused (UniProt P06241)
[5] = target: FYNT isoform of FYN, N1-fused (UniProt P06241)
[6] = target: HCK R150A mutant, N1-fused (UniProt P08631)
[7] = target: HCK Y501F mutant, N1-fused (UniProt P08631)
[8] = target: LCK Y505F mutant, C1-fused (UniProt P06239)
[9] = target: LCK Y505F mutant, N1-fused (UniProt P06239)
[10] = target: LCK wild type, C1-fused (UniProt P06239)
[11] = target: LCK wild type, N1-fused (UniProt P06239)
[12] = target: LYN, C1-fused (UniProt P07948)
[13] = target: SRMS, C1-fused (UniProt Q9H3Y6)
[14] = target: SRMS, N1-fused (UniProt Q9H3Y6)

Measured: binding

SRC kinase associated phosphoprotein 2 (SKAP2), wild type, N2-fused (from UniProt O75563 1-359)
binds: all assays above

SRC kinase associated phosphoprotein 1 (SKAP1), wild type, N2-fused (from UniProt Q86WV1 1-359)
binds: all assays above
